Assay [1] concerns the target T1, FLAG-tagged human RSPO2 (Genentech) (human, UniProt Q6UXX9 22-243).
T1 construct: also called hRSPO2; RSPO2 coated plates; not shown: FLAG tag
As to the kind of experiment: competitive binding ELISA: titrated against biotinylated RNF43-Flag (RNF43-ECD) binding to plate-coated hRSPO2; signal = bound RNF43, normalized OD. (In general: An ELISA detects its analyte on a solid surface through an enzyme-linked reagent.)

Chains of the proteins cited; added tags and fusions are not shown. Lines headed by an entry give the natural chain unless they say otherwise; changes in a name come on top.
UniProt Q6UXX9: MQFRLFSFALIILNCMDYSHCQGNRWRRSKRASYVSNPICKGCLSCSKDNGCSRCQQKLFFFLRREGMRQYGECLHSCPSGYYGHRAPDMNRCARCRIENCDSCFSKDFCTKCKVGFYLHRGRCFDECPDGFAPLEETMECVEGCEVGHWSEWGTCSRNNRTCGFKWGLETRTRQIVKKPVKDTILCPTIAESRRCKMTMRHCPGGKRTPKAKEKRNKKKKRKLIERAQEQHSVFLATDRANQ

For assay [2], the target named is T2, FLAG-tagged human RSPO3 (Genentech) (human, UniProt Q9BXY4 22-272).
T2 construct: also called hRSPO3; RSPO3 coated plates; not shown: FLAG tag
T2 sequence: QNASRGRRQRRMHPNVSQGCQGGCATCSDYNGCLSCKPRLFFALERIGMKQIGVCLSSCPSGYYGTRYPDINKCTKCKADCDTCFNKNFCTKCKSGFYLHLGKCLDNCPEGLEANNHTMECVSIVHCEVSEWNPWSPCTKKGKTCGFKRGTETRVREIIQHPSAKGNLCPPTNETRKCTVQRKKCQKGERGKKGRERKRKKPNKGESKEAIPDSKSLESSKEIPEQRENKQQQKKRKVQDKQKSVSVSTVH
Briefly: competitive binding ELISA: titrated against biotinylated RNF43-Flag (RNF43-ECD) binding to plate-coated hRSPO3; signal = bound RNF43, normalized OD.

This passage reports binding results from US20180312579A1 (Genentech, published 2018).

No constants are given. Whether binding was seen depends on the method and setting. Some results given as binding are weak or reduced against the parent protein; the word gives no strength. For some assays here: Tags and fused reporters may be left off the sequences shown.

B1: RNF43 (receptor)
chain: GFGRTGLVLAAAVESERSAEQKAIIRVIPLKMDPTGKLNLTLEGVFAGVAEITPAEGKLMQSHPLYLCNASDDDNLEPGFISIVKLESPRRAPRPCLSLASKARMAGERGASAVLFDITEDRAAAEQLQQPLGLTWPVVLIWGNDAEKLMEFVYKNQKAHVRIELKEPPAWPDY
notes: kept apart from the biotinylated tracer m34; not shown: FLAG tag and any linker to it
Consider B1, for which the binding entry in assay [1] and in assay [2] was “binds” in each case.
